# Experimental data: PubChem BioAssay AID1224826 (NIAID, 2016)
# Purpose: 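Regulators of Tlr4 signalling leading to Tnf-alpha expression in macrophages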 (primary screen)
# Cells: RAW264.7 G9 macrophages from mouse bearing reporters for p65 (GFP) and the Tnf promoter (mCherry)
# Knock-down reagent: siRNA pool against mouse genes, 100 nM
# Time to read-out: 16 h of LPS stimulation, after 2 days of siRNA transfection
# Challenge: bacterial lipopolysaccharide (Salmonella minnesota R595), 10 ng/ml
# Measured: 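Nuclear mCherry signal of the Tnf promoter reporter measured by imaging after background removal, scaled to each plate median and turned into robust z-scores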
# Reading the numbers: Tnf reporter robust z-score: higher = stronger Tnf promoter reporter signal after LPS
# Hit rule: 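Called active when robust z-score is at most -1.3, matching the median of the Tlr4 knock-down control, or over 3; control wells and wells with under 50 cells never active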
# Meaning of the calls: active = Tnf reporter clearly lowered or raised; inactive = no clear change in Tnf reporter
# This is an unselected part of about 17,000 reagents tested. About 1,110 of them (6.6%) count as active. 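Active means lowered or raised reporter signal; replicate intensities are raw and not normalised per plate.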 A number with no mark means an inactive call. Some reagents were tested in more than one well and are listed for each. Further read-outs or replicates are left out here.
gene,PubChem SID,Tnf reporter robust z-score,fewer than 50 cells in well
Fbxo36 (GeneID 66153),SID315472249,-0.71,enough cells in well
Tab3 (GeneID 66724),SID315472608,,fewer than 50 cells per well; well left out of calls
Cd4 (GeneID 12504),SID315465862,0.43,enough cells in well
Il18bp (GeneID 16068),SID315467415,-0.71,enough cells in well
Traf3ip2 (GeneID 103213),SID315476366,0.12,enough cells in well
Map1lc3a (GeneID 66734),SID315472614,,fewer than 50 cells per well; well left out of calls
Cabp5 (GeneID 29865),SID315470722,-1.45 (active),enough cells in well
Sema3a (GeneID 20346),SID315469171,-0.42,enough cells in well
Or4c118 (GeneID 258894),SID315480521,1.37,enough cells in well
Rad51ap1 (GeneID 19362),SID315468876,-0.77,enough cells in well
Cstf3 (GeneID 228410),SID315478630,0.88,enough cells in well
Acad12 (GeneID 338350),SID315481668,-0.75,enough cells in well
Dennd10 (GeneID 67894),SID315473295,0.61,enough cells in well
Cstf2t (GeneID 83410),SID315475816,0.9,enough cells in well
Rock2 (GeneID 19878),SID315468994,-1.19,enough cells in well
Tll2 (GeneID 24087),SID315470321,-1.14,enough cells in well
Ncln (GeneID 103425),SID315476371,,fewer than 50 cells per well; well left out of calls
Pdcd4 (GeneID 18569),SID315468427,1.85,enough cells in well
Faim2 (GeneID 72393),SID315474538,-0.46,enough cells in well
Vhl (GeneID 22346),SID315469999,-0.09,enough cells in well
Tdrd12 (GeneID 71981),SID315474403,,fewer than 50 cells per well; well left out of calls
Il18rap (GeneID 16174),SID315467441,-0.95,enough cells in well
Itln1 (GeneID 16429),SID315467531,,fewer than 50 cells per well; well left out of calls
Or4f58 (GeneID 258271),SID315479965,-0.8,enough cells in well
Rrp9 (GeneID 27966),SID315470645,0.18,enough cells in well
Or4a81 (GeneID 258468),SID315480147,0.92,enough cells in well
Psme4 (GeneID 103554),SID315476378,,fewer than 50 cells per well; well left out of calls
Hvcn1 (GeneID 74096),SID315474841,-0.52,enough cells in well
Erfe (GeneID 227358),SID315478559,,fewer than 50 cells per well; well left out of calls
Tinag (GeneID 26944),SID315470498,1.19,enough cells in well
Trim30b (GeneID 244183),SID315479740,0.91,enough cells in well
Rnf103 (GeneID 22644),SID315470090,0.43,enough cells in well
Rem2 (GeneID 140743),SID315477146,1.21,enough cells in well
Tcea1 (GeneID 21399),SID315469603,0.14,enough cells in well
Asb4 (GeneID 65255),SID315472155,0.46,enough cells in well
Reck (GeneID 53614),SID315471091,0.01,enough cells in well
Slc5a8 (GeneID 216225),SID315477987,-1.11,enough cells in well
Epyc (GeneID 13516),SID315466395,0.59,enough cells in well
Mapk13 (GeneID 26415),SID315470392,-0.29,enough cells in well
Chd8 (GeneID 67772),SID315473219,-0.52,enough cells in well
Rapgef6 (GeneID 192786),SID315477426,2.31,enough cells in well
Nectin1 (GeneID 58235),SID315471890,0.2,enough cells in well
Pdk1 (GeneID 228026),SID315478618,0.03,enough cells in well
Lrrc18 (GeneID 67580),SID315473109,,fewer than 50 cells per well; well left out of calls
Klhdc3 (GeneID 71765),SID315474312,-1.46 (active),enough cells in well
Mef2b (GeneID 17259),SID315467891,-1.25,enough cells in well
Ikzf4 (GeneID 22781),SID315470157,-0.37,enough cells in well
Ikzf4 (GeneID 22781),SID315470158,1.03,enough cells in well
Cd24a (GeneID 12484),SID315465845,-0.86,enough cells in well
Ppnr (GeneID 26930),SID315470487,0.66,enough cells in well
Dnm1l (GeneID 74006),SID315474809,-0.48,enough cells in well
2310057J18Rik (GeneID 67719),SID315473188,2.58,enough cells in well
Mrpl53 (GeneID 68499),SID315473549,3.29 (active),enough cells in well
Slc35b4 (GeneID 58246),SID315471899,0.07,enough cells in well
Paxip1 (GeneID 55982),SID315471325,-0.48,enough cells in well
Grk4 (GeneID 14772),SID315467004,1.09,enough cells in well
Grk4 (GeneID 14772),SID315467004,0.79,enough cells in well
Avpr1a (GeneID 54140),SID315471159,-0.35,enough cells in well
Avpr1a (GeneID 54140),SID315471159,-0.31,enough cells in well

Called active, of those listed so far:
gene,PubChem SID,Tnf reporter robust z-score,fewer than 50 cells in well
Cabp5 (GeneID 29865),SID315470722,-1.45 (active),enough cells in well
Klhdc3 (GeneID 71765),SID315474312,-1.46 (active),enough cells in well
Mrpl53 (GeneID 68499),SID315473549,3.29 (active),enough cells in well
